Assay results: PubChem BioAssay AID2685 (National Center for Advancing Translational Sciences (NCATS), 2010)
Among all 320,000 compounds or so, about 2,100 (0.66%) were called active. The shares of active, inactive and inconclusive entries below differ from those in the screen. The call rests on the fitted dose curve; in most records, active means well fitted inhibition curve with a large enough effect in the signal ratio, with a control signal flat (not every such curve was filed as active); inconclusive means small, poorly fitted or top-dose-only effect, or effect the other way, or a change in a side signal; inactive means flat fitted curve, though single readings scatter; the % refers to the signal ratio. Potencies of inconclusive entries are doubtful fits and often do not repeat.

Experiment: qHTS Assay for Lipid Storage Modulators in Drosophila S3 Cells
Settings: BODIPY lipid droplet fluorescence, 18-24 h, cells fed with added oleic acid; lipid storage change, negative = inhibition: at 46.1 µM (top of the series) unless noted
Method in brief: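 Drosophila S3 cells got compounds at several concentrations plus oleic acid (400 uM solution). Laser-scanning cytometry with 488 nm excitation read lipid droplets at 500-530 nm and cells at 575-640 nm. Percent activity was relative to 20 uM Triacsin C.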
On the % scale 0 is the no-effect control and ±100 the full control effect; potency means the concentration at half of the fitted maximal effect.

Row | Structure (SMILES) | lipid storage change, negative = inhibition | Potency
1 | CCN(CC)CCNC(=O)c1ccc(NC(=O)c2cccc(S(=O)(=O)N3c4ccccc4CC3C)c2)cc1 (stereo not given) | inconclusive: -64.9% | 
2 | C=Cn1c(C(=O)O)cc(CC)c1-c1ccccc1 |  | inconclusive: 6.51 µM [rising, single point]
3 | Cn1cccc1CC(=O)N/N=C/c1ccc(Cl)cc1 | inactive | 
4 | O=C(COc1ccc2c(c1)CCC2)N1CCN(c2ccccc2F)CC1 |  | inconclusive: 0.092 µM [falling, full curve, poor fit]
5 | COc1cc(/C=N/NC(=O)C(N)=O)ccc1OCC(=O)N1C(C)CCCC1C (stereo not given) | inconclusive: 11.6% | 
6 | C=CCNC(=O)CN(c1ccc(F)cc1)S(=O)(=O)c1ccc(OC)cc1 |  | inconclusive: 13 µM [activator, partial curve, poor fit]
7 | Cc1ccc(Nc2nnc(SCC(=O)N(C)C3CCS(=O)(=O)C3)s2)cc1 (stereo not given) | inconclusive: 40.9% | 
8 | COc1ccc(CNC(=O)COC(=O)CCS(=O)(=O)c2ccc(C)cc2)cc1OC | inconclusive | 
9 | N#Cc1cc2c(nc1SCC(O)CS(=O)(=O)Cc1ccc(Cl)cc1)CCCC2 (stereo not given) |  | inconclusive: 6.51 µM [activator, single point]
10 | Cc1ccc(C)c(OCC(=O)OCC(=O)Nc2c(C)nn(-c3ccccc3)c2C)c1 | inconclusive | 
11 | Cc1cc(C)n2nc(SCCCC(=O)c3ccccc3)nc2n1 | inconclusive: 31.9% | 
12 | Cc1cccc(NC(=O)CSCc2nc3c(nnn3Cc3ccc(F)cc3)c(=O)[nH]2)c1C | inconclusive: -23.7% | 
13 | COc1ccccc1NC(=O)c1ccc(NC(=O)CNC(=O)c2ccc(OC)c(OC)c2)cc1 | inconclusive: -86.5% | 
14 | CC1(C)Cc2c(cnn2-c2ccc(F)cc2)C(NC(=O)c2ccc(=O)oc2)C1 (stereo not given) |  | inconclusive: 2.06 µM [falling, partial curve, poor fit]
15 | O=C(NC1CCCCC1)C(c1ccccc1)N1CCC2(CC1)OCCO2 (stereo not given) | inconclusive: 26.8% | 
16 | O=C(CNC(=O)c1ccc(Br)o1)NC12CC3CC(CC(C3)C1)C2 | inconclusive: 132% | 
17 | CCOc1ccc(NS(=O)(=O)c2ccc(NS(=O)(=O)c3cccs3)cc2)cc1 |  | inconclusive: 4.11 µM [activator, full curve]
18 | OCCN1CCN(c2ncnc3sc4c(c23)CCCC4)CC1 | inconclusive: 40.5% | 
19 | COc1cc(C)c(Cl)c(C)c1S(=O)(=O)NCc1ccc2c(c1)OCO2 |  | inconclusive: 4.61 µM [activator, full curve]
20 | Cc1cccc(N2CCN(C(=O)CCCn3c(=O)[nH]c4ccsc4c3=O)CC2C)c1 (stereo not given) |  | inconclusive: 29.1 µM [falling, single point]

Record cards (already shown):
`COc1ccc(CNC(=O)COC(=O)CCS(=O)(=O)c2ccc(C)cc2)cc1OC` as listed: lipid storage change, negative = inhibition: inconclusive
`N#Cc1cc2c(nc1SCC(O)CS(=O)(=O)Cc1ccc(Cl)cc1)CCCC2` (stereo not given) as listed: Potency: inconclusive: 6.51 µM [activator, single point]
